Results: PubChem BioAssay AID2551 (National Center for Advancing Translational Sciences (NCATS), 2010)
In all, about 310,000 compounds went through this assay and about 17,000 (5.5%) were called active. The inconclusive results got no clear call from the source; some entries with a clear call stand among them for comparison. Calls come from the whole dose curve; as a rule, active = well fitted inhibition curve with a large enough effect; inconclusive = small, poorly fitted or top-dose-only effect, or effect the other way; inactive = no such curve, though single readings can be large or run the other way. Potencies of inconclusive entries are doubtful fits and often do not repeat.

The chains behind the UniProt entries cited, without tags or fusion partners. Where a name states a change or a piece, a line headed by the entry shows the natural chain unless it says otherwise.
UniProt P51450: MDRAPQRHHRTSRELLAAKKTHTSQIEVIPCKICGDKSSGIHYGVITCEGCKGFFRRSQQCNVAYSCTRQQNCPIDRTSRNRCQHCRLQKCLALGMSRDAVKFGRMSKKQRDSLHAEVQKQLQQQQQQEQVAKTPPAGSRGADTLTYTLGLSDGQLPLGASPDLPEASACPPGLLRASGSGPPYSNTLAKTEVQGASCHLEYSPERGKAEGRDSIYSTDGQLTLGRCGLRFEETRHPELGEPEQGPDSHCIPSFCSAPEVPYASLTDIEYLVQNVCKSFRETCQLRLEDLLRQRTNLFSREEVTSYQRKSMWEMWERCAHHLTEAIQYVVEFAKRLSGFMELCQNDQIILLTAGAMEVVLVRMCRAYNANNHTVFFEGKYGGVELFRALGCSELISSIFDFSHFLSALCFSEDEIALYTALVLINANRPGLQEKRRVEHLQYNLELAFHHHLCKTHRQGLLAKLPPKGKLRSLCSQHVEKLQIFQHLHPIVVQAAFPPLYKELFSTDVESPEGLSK

Target: Nuclear receptor ROR-gamma (Mus musculus) (UniProt P51450)
Assay: qHTS for inhibitors of ROR gamma transcriptional activity; note: nearly all actives have a fitted effect of over 60% in size
Details: Drosophila S2 Gal4-RORgamma UAS-luciferase reporter, 20 h; activity change, negative = inhibition: at 53.6 µM (top of the series)
How it was run: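 Stably transfected Drosophila Schneider cells are the test system, with ROR gamma fused to Gal4 and luciferase under UAS control; luminescence is read after 20 hr of 700 uM copper sulfate induction at ambient temperature.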
% is set by controls: 0 for no effect and ±100 for the full control effect; potency is the fitted concentration of half-maximal effect.

Potency, active:
CCCCn1c(O)c(N=Nc2ccccn2)c2ccccc21 10 µM

Potency, inconclusive:
CC(C)Cn1c(=O)c(C(=O)NCc2ccc3c(c2)OCO3)c(O)c2ccccc21 15.8 µM [inhibitor, single point]
Cc1cc(C)nc(N2CCC(C(=O)Nc3ccc4c(c3)CCC4)CC2)n1 0.794 µM [inhibitor, single point]
COc1ccc(C(=O)NC(=S)Nc2ccccc2N2CCN(S(C)(=O)=O)CC2)cc1OC 10 µM [inhibitor, single point]
CCN(CCCNC(=O)CCn1c(=S)[nH]c2cc3c(cc2c1=O)OCO3)c1cccc(C)c1 17.8 µM [inhibitor, single point]
Cc1ccc(Cn2nc(-c3ccccc3)nc2-c2ccccc2)cc1 35.5 µM [inhibitor, single point]
C=C1CCC[C@]2(C)C[C@H]3OC(=O)C(CN4CCCCC4CO)[C@H]3CC12 (stereo partly drawn) 11.2 µM [inhibitor, single point]
CCC(=O)Nc1ccccc1C(=O)OCC(=O)c1ccc2ccccc2c1 2.51 µM [activator, full curve]
O=[N+]([O-])c1cc(Br)c(Nc2ccccc2)c([N+](=O)[O-])c1 11.2 µM [inhibitor, partial curve, poor fit]
COc1ccc(C2CC3(CC(C)(C)NC(=S)N3)Oc3cc(O)cc(C)c32)cc1 (stereo not drawn) 22.4 µM [inhibitor, single point]
Cc1cc(C)n(CC(O)COc2ccccc2[N+](=O)[O-])n1 (stereo not drawn) 17.8 µM [activator, single point]
Cc1cc(/C=C2/NC(=S)NC2=O)c(C)n1-c1cccnc1 0.708 µM [inhibitor, single point]
CCOC(=O)N/N=C(C)/C=C/c1ccco1 22.4 µM [activator, single point]
C=CCn1c(COc2ccccc2)nc2ccccc21 11.2 µM [inhibitor, partial curve]
COc1ccc(N(C)C(=S)Oc2ccc(C(=O)Nc3ccccc3)cc2)cc1 14.1 µM [activator, partial curve]
CN(C)S(=O)(=O)c1cccc(N=C2NN=C(c3ccccc3)CS2)c1 17.8 µM [inhibitor, single point]

Three structures from above, sorted by number of heavy atoms, largest number first.
Potency, inconclusive:
COc1ccc(C(=O)NC(=S)Nc2ccccc2N2CCN(S(C)(=O)=O)CC2)cc1OC 10 µM [inhibitor, single point]
COc1ccc(C2CC3(CC(C)(C)NC(=S)N3)Oc3cc(O)cc(C)c32)cc1 (stereo not drawn) 22.4 µM [inhibitor, single point]
Cc1cc(C)n(CC(O)COc2ccccc2[N+](=O)[O-])n1 (stereo not drawn) 17.8 µM [activator, single point]

Next part.

Activity change, negative = inhibition, inactive:
O=S(=O)(NCC(c1cccnc1)N1CCN(Cc2ccccc2)CC1)c1cc(F)ccc1F (stereo not drawn) -0.394%
C=CCNC(=O)/C(C#N)=C/c1c(N(Cc2ccccc2)Cc2ccccc2)nc2ccccn2c1=O 38.3%
